Data published in the supplement of paper PMC10849652.
The other results are listed elsewhere or left out.

By UniProt entry, the sequences of proteins in these tests, tags left out. Where a name states a change or a piece, a line headed by the entry shows the natural chain unless it says otherwise.
UniProt P35749, whole entry, looked up: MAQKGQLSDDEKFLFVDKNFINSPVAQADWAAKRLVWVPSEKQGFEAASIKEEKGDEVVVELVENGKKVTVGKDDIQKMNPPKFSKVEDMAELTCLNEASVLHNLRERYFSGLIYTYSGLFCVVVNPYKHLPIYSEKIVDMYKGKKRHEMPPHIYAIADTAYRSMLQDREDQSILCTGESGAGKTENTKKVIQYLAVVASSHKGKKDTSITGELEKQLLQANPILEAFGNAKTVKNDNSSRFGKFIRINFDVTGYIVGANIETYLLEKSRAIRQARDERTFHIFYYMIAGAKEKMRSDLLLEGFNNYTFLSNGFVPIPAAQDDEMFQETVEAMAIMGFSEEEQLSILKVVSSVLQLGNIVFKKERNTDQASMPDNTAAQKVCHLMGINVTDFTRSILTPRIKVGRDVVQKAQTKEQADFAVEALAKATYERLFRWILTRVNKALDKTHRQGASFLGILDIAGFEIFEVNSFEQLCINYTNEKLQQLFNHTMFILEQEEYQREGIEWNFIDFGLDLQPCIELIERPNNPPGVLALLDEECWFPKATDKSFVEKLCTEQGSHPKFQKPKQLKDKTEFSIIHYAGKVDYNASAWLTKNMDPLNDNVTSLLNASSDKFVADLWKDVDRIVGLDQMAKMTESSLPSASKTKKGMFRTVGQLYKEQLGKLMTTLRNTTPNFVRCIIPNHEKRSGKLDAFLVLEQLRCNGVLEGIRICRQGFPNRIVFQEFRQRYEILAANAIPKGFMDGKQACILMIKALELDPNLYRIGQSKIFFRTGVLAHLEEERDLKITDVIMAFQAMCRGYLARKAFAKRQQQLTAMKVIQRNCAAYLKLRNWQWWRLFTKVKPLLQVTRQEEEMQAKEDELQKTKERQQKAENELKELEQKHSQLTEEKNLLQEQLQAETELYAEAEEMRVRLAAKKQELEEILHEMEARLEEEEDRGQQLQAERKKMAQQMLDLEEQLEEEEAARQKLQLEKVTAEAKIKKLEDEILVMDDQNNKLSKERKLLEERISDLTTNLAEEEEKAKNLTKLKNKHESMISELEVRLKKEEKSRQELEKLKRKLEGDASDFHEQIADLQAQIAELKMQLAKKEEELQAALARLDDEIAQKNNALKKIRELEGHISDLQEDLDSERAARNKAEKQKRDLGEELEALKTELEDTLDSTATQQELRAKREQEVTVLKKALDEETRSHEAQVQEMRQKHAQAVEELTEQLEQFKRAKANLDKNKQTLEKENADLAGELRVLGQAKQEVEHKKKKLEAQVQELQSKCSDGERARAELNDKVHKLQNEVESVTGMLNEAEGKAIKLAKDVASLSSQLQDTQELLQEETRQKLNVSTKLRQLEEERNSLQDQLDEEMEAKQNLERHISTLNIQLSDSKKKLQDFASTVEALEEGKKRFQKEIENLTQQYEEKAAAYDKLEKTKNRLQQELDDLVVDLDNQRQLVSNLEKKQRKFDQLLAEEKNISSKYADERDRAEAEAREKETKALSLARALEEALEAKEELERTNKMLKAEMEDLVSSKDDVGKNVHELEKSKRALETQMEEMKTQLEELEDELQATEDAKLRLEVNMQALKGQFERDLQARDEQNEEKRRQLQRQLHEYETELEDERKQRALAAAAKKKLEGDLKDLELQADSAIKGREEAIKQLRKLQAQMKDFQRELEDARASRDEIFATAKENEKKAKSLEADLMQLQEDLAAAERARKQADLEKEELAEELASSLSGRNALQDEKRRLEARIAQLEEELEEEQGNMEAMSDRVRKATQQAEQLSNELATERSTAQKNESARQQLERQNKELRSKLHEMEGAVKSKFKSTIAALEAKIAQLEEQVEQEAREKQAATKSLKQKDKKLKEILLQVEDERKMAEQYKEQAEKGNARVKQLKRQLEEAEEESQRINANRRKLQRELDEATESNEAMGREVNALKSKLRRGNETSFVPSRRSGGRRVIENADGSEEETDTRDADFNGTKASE
UniProt Q86UW6: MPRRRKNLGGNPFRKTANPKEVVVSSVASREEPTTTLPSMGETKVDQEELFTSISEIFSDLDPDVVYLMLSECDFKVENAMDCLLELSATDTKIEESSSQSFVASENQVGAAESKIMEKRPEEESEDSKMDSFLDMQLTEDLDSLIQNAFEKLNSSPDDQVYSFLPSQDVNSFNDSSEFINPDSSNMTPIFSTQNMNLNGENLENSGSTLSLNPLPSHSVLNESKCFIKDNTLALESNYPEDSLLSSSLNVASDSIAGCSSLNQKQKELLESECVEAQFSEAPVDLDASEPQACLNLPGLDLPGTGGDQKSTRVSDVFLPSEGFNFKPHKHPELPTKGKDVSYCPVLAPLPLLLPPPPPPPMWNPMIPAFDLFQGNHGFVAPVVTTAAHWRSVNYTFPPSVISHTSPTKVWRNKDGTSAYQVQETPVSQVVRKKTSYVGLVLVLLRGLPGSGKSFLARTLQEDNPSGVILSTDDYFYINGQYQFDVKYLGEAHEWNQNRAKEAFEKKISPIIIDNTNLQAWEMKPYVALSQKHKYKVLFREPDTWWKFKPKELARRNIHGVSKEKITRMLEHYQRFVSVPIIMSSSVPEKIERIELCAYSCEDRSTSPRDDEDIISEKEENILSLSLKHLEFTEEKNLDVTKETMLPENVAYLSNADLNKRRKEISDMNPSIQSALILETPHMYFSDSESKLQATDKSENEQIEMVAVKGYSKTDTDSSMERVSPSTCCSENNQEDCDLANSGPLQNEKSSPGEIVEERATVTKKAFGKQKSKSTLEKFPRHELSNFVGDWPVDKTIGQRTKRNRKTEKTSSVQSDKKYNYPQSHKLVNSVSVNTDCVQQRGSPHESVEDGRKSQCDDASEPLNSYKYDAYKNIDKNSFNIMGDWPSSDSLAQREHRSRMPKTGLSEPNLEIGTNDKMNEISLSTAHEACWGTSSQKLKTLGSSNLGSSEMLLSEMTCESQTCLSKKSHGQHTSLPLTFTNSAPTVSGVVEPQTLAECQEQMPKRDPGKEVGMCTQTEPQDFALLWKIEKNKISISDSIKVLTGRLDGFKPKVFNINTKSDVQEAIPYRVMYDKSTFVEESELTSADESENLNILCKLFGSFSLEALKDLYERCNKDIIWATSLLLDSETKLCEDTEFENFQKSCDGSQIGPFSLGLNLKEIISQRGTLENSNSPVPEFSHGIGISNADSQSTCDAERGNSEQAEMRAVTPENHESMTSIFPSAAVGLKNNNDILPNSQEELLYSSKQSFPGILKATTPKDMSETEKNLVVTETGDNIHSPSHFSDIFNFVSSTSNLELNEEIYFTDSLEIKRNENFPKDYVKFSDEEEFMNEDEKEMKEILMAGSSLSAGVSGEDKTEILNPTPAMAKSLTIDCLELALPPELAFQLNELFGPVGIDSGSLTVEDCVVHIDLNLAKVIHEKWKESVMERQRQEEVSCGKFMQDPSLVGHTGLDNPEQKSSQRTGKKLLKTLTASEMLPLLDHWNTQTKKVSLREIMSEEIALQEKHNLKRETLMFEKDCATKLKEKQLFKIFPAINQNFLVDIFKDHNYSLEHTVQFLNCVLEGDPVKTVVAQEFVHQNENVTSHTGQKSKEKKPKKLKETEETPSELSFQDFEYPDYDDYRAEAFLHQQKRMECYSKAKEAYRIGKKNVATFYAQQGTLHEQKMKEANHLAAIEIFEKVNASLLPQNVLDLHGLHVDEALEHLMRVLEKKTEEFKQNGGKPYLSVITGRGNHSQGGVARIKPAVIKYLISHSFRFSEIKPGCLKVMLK
UniProt Q14686, whole entry, looked up: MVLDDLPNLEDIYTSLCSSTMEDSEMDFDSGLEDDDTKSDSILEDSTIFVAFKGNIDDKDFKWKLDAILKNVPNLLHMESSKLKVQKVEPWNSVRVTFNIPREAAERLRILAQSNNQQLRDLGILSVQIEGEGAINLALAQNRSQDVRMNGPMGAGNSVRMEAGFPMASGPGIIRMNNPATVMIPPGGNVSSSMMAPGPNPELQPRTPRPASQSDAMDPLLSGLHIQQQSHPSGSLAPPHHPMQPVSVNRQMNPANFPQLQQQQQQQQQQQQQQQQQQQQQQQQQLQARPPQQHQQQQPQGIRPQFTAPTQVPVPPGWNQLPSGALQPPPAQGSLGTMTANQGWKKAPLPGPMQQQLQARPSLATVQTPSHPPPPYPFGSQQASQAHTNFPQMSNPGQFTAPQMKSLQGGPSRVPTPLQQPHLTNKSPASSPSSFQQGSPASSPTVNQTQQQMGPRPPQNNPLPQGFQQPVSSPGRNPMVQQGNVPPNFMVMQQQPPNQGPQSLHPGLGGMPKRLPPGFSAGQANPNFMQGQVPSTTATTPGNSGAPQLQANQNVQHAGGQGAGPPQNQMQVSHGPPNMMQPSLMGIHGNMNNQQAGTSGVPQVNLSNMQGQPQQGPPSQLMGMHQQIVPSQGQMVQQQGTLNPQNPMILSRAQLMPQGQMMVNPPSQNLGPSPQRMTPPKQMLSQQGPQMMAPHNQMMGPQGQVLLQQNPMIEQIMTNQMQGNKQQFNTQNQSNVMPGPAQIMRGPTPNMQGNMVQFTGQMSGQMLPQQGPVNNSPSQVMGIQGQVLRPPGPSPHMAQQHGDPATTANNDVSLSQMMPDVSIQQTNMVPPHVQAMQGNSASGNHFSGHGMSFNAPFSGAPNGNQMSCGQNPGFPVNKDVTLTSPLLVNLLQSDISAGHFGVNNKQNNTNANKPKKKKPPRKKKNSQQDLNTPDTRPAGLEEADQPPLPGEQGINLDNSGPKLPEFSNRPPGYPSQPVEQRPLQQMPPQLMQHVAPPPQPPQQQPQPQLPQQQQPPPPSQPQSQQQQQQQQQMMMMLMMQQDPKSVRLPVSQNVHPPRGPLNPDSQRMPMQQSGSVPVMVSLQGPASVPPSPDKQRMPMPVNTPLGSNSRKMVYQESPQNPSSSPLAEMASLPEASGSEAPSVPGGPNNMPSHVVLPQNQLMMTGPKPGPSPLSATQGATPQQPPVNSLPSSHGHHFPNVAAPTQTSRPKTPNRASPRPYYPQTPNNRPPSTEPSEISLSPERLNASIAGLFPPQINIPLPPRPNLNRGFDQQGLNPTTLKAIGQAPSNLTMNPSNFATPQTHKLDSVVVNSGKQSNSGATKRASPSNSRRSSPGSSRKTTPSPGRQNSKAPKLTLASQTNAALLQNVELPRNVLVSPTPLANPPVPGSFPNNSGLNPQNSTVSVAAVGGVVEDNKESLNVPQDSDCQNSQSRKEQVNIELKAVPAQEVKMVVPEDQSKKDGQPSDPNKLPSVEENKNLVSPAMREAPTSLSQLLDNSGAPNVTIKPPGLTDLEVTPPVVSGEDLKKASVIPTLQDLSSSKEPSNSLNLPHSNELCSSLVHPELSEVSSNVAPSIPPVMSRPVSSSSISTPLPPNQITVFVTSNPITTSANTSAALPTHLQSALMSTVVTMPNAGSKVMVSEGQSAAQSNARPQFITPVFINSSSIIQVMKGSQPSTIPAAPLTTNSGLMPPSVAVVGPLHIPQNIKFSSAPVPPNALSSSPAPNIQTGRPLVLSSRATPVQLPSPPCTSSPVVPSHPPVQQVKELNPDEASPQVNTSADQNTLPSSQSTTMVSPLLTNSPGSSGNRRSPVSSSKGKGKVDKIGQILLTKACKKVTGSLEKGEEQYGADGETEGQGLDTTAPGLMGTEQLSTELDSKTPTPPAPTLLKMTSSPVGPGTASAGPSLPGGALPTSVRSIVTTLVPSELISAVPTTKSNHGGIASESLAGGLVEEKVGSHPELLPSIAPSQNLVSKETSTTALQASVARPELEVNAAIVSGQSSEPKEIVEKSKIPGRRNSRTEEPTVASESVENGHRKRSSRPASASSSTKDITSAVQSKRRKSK
UniProt Q69YL0: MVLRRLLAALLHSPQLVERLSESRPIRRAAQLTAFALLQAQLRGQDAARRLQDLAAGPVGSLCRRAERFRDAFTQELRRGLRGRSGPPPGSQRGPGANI
UniProt Q96I59: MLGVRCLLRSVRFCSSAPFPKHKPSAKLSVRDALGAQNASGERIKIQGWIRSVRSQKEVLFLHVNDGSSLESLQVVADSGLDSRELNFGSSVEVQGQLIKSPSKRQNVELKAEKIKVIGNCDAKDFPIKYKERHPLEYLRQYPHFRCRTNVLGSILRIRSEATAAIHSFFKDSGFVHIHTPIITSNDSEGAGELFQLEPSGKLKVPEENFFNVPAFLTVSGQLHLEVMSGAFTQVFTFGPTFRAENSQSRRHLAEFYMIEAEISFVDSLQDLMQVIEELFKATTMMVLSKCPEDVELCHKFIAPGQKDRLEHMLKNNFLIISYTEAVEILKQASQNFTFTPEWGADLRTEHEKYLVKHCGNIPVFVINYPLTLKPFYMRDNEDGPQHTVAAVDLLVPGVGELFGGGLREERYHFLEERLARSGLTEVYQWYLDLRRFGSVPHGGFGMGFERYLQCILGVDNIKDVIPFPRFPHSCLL
UniProt Q6P582, whole entry, looked up: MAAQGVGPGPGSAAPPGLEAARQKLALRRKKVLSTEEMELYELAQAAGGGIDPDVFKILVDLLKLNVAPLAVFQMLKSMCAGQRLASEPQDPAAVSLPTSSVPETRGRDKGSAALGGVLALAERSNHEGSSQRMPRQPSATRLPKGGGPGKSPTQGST

Tests used:
Assay in all cases: log2 fold change, soluble protein after heating vs DMSO (PISA); higher = thermal stabilisation; K562 lysate, 10 uM; active = over 0.2 and 3.5 SD of the protein, either way, in both replicates (recomputed)
lapatinib = compound: CS(=O)(=O)CCNCc1ccc(-c2ccc3ncnc(Nc4ccc(OCc5cccc(F)c5)c(Cl)c4)c3c2)o1 [lapatinib]
Outline: (§1)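 Pellets of K562 cells were dounce-homogenised in PBS pH 7.4 with 1 mM MgCl2, and the crude extract was held at 1 mg/mL protein for a 30 min treatment with 10 μM compound. Aliquots were heated for 3 min over 48°C-58°C and pooled before NP-40 was added to 0.5% at 4°C. The supernatant from 21,000xg for 90 min was quantified by TMTpro 16plex LC-MS/MS with channel sums equalised. Values are reported from duplicates as log-two fold change in thermal stability relative to solvent controls.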

pictilisib = compound: CS(=O)(=O)N1CCN(Cc2cc3nc(-c4cccc5[nH]ncc45)nc(N4CCOCC4)c3s2)CC1 [pictilisib]
Outline: as §1

crizotinib = compound: C[C@@H](Oc1cc(-c2cnn(C3CCNCC3)c2)cnc1N)c1c(Cl)ccc(F)c1Cl [crizotinib]
Outline: as §1

[1] = compound: C[C@H](C1=CC=C(C=C1)C(=O)NC2=C3C=CNC3=NC=C2)N
Outline: as §1

duvelisib = compound: C[C@H](Nc1ncnc2nc[nH]c12)c1cc2cccc(Cl)c2c(=O)n1-c1ccccc1 [duvelisib]
Outline: as §1

gandotinib = compound: Cc1cc(Nc2cc(CN3CCOCC3)c3nc(C)c(Cc4ccc(Cl)cc4F)n3n2)n[nH]1 [gandotinib]
Outline: as §1

tozasertib = compound: Cc1cc(Nc2cc(N3CCN(C)CC3)nc(Sc3ccc(NC(=O)C4CC4)cc3)n2)n[nH]1 [tozasertib]
Outline: as §1

doramapimod = compound: Cc1ccc(-n2nc(C(C)(C)C)cc2NC(=O)Nc2ccc(OCCN3CCOCC3)c3ccccc23)cc1 [doramapimod]
Outline: as §1

bafetinib = compound: Cc1ccc(NC(=O)c2ccc(CN3CC[C@H](N(C)C)C3)c(C(F)(F)F)c2)cc1Nc1nccc(-c2cncnc2)n1 [bafetinib]
Outline: as §1

[2] = compound: Cc1cccc(CC(=O)N2CCc3c2ccc(-c2cn(C)c4ncnc(N)c24)c3F)n1
Outline: as §1

Row | Target | log2 fold change (lapatinib) | log2 fold change (pictilisib) | log2 fold change (crizotinib) | log2 fold change [1] | log2 fold change (duvelisib) | log2 fold change (gandotinib) | log2 fold change (tozasertib) | log2 fold change (doramapimod) | log2 fold change (bafetinib) | log2 fold change [2]
1 | N4BP1 (UniProt O75113) | inactive: -0.022 | inactive: -0.053 | inactive: -0.037 | inactive: 0.029 | inactive: -0.008 | inactive: -0.064 | inactive: 0.004 | inactive: -0.009 | inactive: 0.042 | inactive: -0.04
2 | MYH14 isoform 2 (UniProt Q7Z406) | inactive: -0.018 | inactive: 0.018 | inactive: -0.022 | inactive: -0.018 | inactive: 0.009 | inactive: -0.003 | inactive: -0.041 | inactive: 0.025 | inactive: 0.033 | inactive: 0.04
3 | MYH11 isoform 2 (UniProt P35749) | inactive: 0.075 | inactive: -0.002 | inactive: 0.054 | active: 0.279 | inactive: 0.055 | inactive: -0.004 | inactive: 0.031 | inactive: -0.044 | inactive: 0.303 | inactive: -0.018
4 | N4BP2 (UniProt Q86UW6) | inactive: 0.003 | inactive: 0.054 | inactive: 0.002 | active: -0.236 | inactive: 0.028 | inactive: 0.014 | inactive: -0.032 | inactive: -0.015 | inactive: -0.038 | inactive: 0.149
5 | NARS1 (UniProt O43776) | inactive: 0.011 | inactive: 0.017 | inactive: -0.024 | inactive: 0.016 | inactive: 0.025 | inactive: -0.025 | inactive: 0.049 | inactive: 0.029 | inactive: -0.017 | inactive: 0.004
6 | NCOA6 (UniProt Q14686) | inactive: 0.014 | inactive: -0.025 | inactive: 0.001 | inactive: -0.056 | inactive: -0.048 | inactive: 0.016 | inactive: -0.039 | inactive: -0.062 | inactive: -0.037 | inactive: -0.003
7 | NCBP2AS2 (UniProt Q69YL0) | inactive: -0.033 | inactive: -0.08 | inactive: -0.07 | inactive: 0.062 | inactive: -0.034 | inactive: -0.142 | inactive: 0.086 | inactive: 0.031 | inactive: -0.271 | inactive: -0.051
8 | NARS2 (UniProt Q96I59) | inactive: 0.039 | inactive: -0.132 | inactive: -0.034 | inactive: 0.039 | inactive: -0.002 | inactive: -0.058 | inactive: 0.013 | inactive: -0.01 | inactive: -0.053 | inactive: 0.024
9 | NCK2 (UniProt O43639) | inactive: -0.014 | inactive: -0.089 | inactive: 0.037 | inactive: 0.029 | inactive: 0.034 | inactive: -0.024 | inactive: 0.045 | inactive: 0.092 | inactive: 0.012 | inactive: 0
10 | NAAA (UniProt Q02083) | inactive: 0.021 | inactive: -0.108 | inactive: 0.043 | inactive: 0.056 | inactive: 0.018 | inactive: -0.021 | inactive: 0.202 | inactive: -0.069 | inactive: -0.027 | inactive: -0.107
11 | NAPA (UniProt P54920) | inactive: 0.008 | inactive: 0.006 | inactive: -0.003 | inactive: 0.032 | inactive: 0.033 | inactive: -0.061 | inactive: -0.006 | inactive: 0.014 | inactive: 0.001 | inactive: -0.045
12 | NAA10 (UniProt P41227) | inactive: -0.009 | inactive: 0.003 | inactive: 0.064 | inactive: 0.041 | inactive: -0.021 | inactive: -0.056 | inactive: 0.01 | inactive: 0.016 | inactive: -0.008 | inactive: -0.067
13 | NCAPD3 (UniProt P42695) | inactive: -0.015 | inactive: -0.009 | inactive: -0.065 | inactive: -0.013 | inactive: -0.004 | inactive: -0.099 | inactive: -0.013 | inactive: 0.02 | inactive: -0.024 | inactive: 0.047
14 | MZT2A (UniProt Q6P582) | inactive: -0.015 | inactive: 0.003 | inactive: 0.049 | inactive: 0.136 | inactive: -0.075 | inactive: -0.174 | inactive: 0.035 | inactive: -0.024 | inactive: 0.098 | inactive: -0.154

Part of the list above, with tabs.
Row	Target	log2 fold change (lapatinib)	log2 fold change (pictilisib)	log2 fold change (crizotinib)	log2 fold change [1]	log2 fold change (duvelisib)	log2 fold change (gandotinib)	log2 fold change (tozasertib)	log2 fold change (doramapimod)	log2 fold change (bafetinib)	log2 fold change [2]
3	MYH11 isoform 2 (UniProt P35749)	inactive: 0.075	inactive: -0.002	inactive: 0.054	active: 0.279	inactive: 0.055	inactive: -0.004	inactive: 0.031	inactive: -0.044	inactive: 0.303	inactive: -0.018
4	N4BP2 (UniProt Q86UW6)	inactive: 0.003	inactive: 0.054	inactive: 0.002	active: -0.236	inactive: 0.028	inactive: 0.014	inactive: -0.032	inactive: -0.015	inactive: -0.038	inactive: 0.149
